Test results published in patent US20080038735A1.
These are yes or no findings as the source states them, for the method shown. Some binding calls cover weakened binding; strength is not graded here.

Amino acid sequences for entries named in this document (tags omitted). Residues count along the entry.
UniProt P01375, residues 77-233: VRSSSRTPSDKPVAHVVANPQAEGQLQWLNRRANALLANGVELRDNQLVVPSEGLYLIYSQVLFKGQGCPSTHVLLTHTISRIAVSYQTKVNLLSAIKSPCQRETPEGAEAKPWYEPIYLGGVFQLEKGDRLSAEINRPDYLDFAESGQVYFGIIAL

Legend:
[1] = target: TNFa (UniProt P01375); test: ELISA with biotinylated TNFa (FIG. 5), free dAb
[2] = target: TNFa (UniProt P01375); test: ELISA: in vitro translated dAb captured on the plate, incubated with a concentration range of biotinylated TNFa, detected with streptavidin-HRP

- binding [1]: binds
- binding [2]: binds
B1: Vk(TAR1-5-19) (protein)
VL: MASTDIQMTQSPSSLSASVGDRVTITCRASQSIDSYLHWYQQKPGKAPKLLIYSASELQSGVPSRFSGSGSGTDFTLTISSLQPEDFATYYCQQVVWRPFTFGQGTKVEIKRAA
